The results in this text go back to paper PMC10944868, “Synthesis, biological and computational evaluation of novel cyanomethyl vinyl ether derivatives” (Frontiers in Pharmacology, 2024).

Assay [1] concerns BT20 (human breast carcinoma). The assay can be described thus: Cytotoxicity assay (CCK8), BT20. The class given is cell-based. The conditions noted are these: BT-20, BT20 cells, 48 h. As to the method:
(§1) Cells were cultured according to the supplier´s instructions (ATCC technologies, A-549 (CCL-185), BT-20 (HTB-19), SKOV3 (HTB-77), HCT116 (CCL-247), MRC5 (CCL-171). Cells were seeded in 96-well plates at a density of 2–2.5 × 10^3 cells per well and incubated overnight in 0.1 mL of media supplied with 10% Fetal Bovine Serum (Lonza) in 5% CO2 incubator at 37°C. On day 2, drugs were added and samples were incubated for 48 h. After treatment, 10 µL of cell counting kit-8 was added into each well for additional 2 h incubation at 37°C. The absorbance of each well was determined by an Automatic Elisa Reader System at 450 nm wavelength.
(§2) The cytotoxicity of the new synthesized 3-(cyanomethoxy)acrylates was investigated in vitro by testing the antiproliferative activities against two human cancer cell lines: A549 (carcinomic human alveolar basal epithelial cells), SKOV3 (human ovarian carcinoma), BT20 (human breast carcinoma), HCT-116 (human colorectal carcinoma) and MRC-5 (non-malignant lung fibroblasts). The cell counting kit (CCK8) assay was employed to assess growth inhibition and, the cell proliferation inhibitory activities of the compounds are listed in Table 1 as IC50 values (Table 1).

For assay [2], the system named is SKOV3 (human ovarian carcinoma). Description: Cytotoxicity assay (CCK8), SKOV3. The class given is cell-based. The conditions noted are these: SK-OV-3, SKOV3 cells, 48 h. As to the method: as §1, §2

As a reminder, the IC50 is the concentration that gives 50% inhibition. Lower therefore signals inhibition by little substance.

As to `COc1cc2c(c(OC)c1OC)-c1ccc(OC)c(=O)cc1[C@@H](NC(C)=O)CC2` [COL, colchicine, reference compound], the half-inhibitory concentration (IC50) in assay [1] is 22 ± 1.3 µM; in assay [2], 11.6 ± 2.33 µM.
